Experimental data: PubChem BioAssay AID1259405 (NCATS, 2018)
Here is one part, drawn at random, of about 50,000 reagents. In the full data, about 4,000 (8%) are marked active. 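Mouse siRNA library applied to hamster cells; one well for each siRNA.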 Entries without a mark were called inactive. The numbers tell different reagents against one gene apart. No sequences are given here.

- Screen: 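Silenced genes that increase secreted GFP made by CHO cells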 (primary screen)
- System: Chinese hamster CHO-K1 ovary cells with stable secreted eGFP expression
- Reagents: single siRNA against mouse genes, 0.8 pmol siRNA per well (2 µl of 400 nM stock)
- Time to read-out: 3 days
- Measurement: 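Per-well intracellular GFP measured by laser scanning cytometry, plus viability from ATP luminescence, each relative to plate median of non-targeting control wells, in %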
- Reading the numbers: GFP, % of control: higher = more GFP per well, higher productivity; viability (ATP), % of control: higher = more viable cells (more ATP)
- Hit rule: 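Called active when intracellular GFP, relative to negative control, is at or above 120%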

Gene,siRNA no.,"GFP, % of control","viability (ATP), % of control"
Pfdn2 (prefoldin 2),1,87.9,38.4
Pfdn2 (prefoldin 2),2,79.4,74.9
Pfdn2 (prefoldin 2),3,75.1,90.7
R3hdm1 (R3H domain containing 1),1,111,76.3
R3hdm1 (R3H domain containing 1),2,122 (active),82.6
R3hdm1 (R3H domain containing 1),3,31.1,28.6
Them6 (thioesterase superfamily member 6),1,47.9,52.5
Them6 (thioesterase superfamily member 6),2,29.7,43
Them6 (thioesterase superfamily member 6),3,44.7,49.4
Pard6b (par-6 family cell polarity regulator beta),1,87,48.2
Pard6b (par-6 family cell polarity regulator beta),2,86.8,61.3
Pard6b (par-6 family cell polarity regulator beta),3,109,132
"Plch1 (phospholipase C, eta 1)",1,113,107
"Plch1 (phospholipase C, eta 1)",2,70.5,78.9
"Plch1 (phospholipase C, eta 1)",3,51,42.2
G430095P16Rik (RIKEN cDNA G430095P16 gene),1,73.8,84.9
G430095P16Rik (RIKEN cDNA G430095P16 gene),2,92.1,81
G430095P16Rik (RIKEN cDNA G430095P16 gene),3,113,98.3
Or4k49 (olfactory receptor family 4 subfamily K member 49),1,84,88.7
Or4k49 (olfactory receptor family 4 subfamily K member 49),2,69.8,86.2
Or4k49 (olfactory receptor family 4 subfamily K member 49),3,53.8,98.2
Panx2 (pannexin 2),1,45.5,63.9
Panx2 (pannexin 2),2,99.8,86.9
Panx2 (pannexin 2),3,117,90.4
Cfap298 (cilia and flagella associate protien 298),1,67.2,69
Cfap298 (cilia and flagella associate protien 298),2,64.4,53.2
Cfap298 (cilia and flagella associate protien 298),3,30.9,18.2
Dvl3 (dishevelled segment polarity protein 3),1,85.2,80.7
Dvl3 (dishevelled segment polarity protein 3),2,63.8,65.9
Dhx29 (DExH-box helicase 29),1,58.8,60
Dhx29 (DExH-box helicase 29),2,59.5,41.5
Dhx29 (DExH-box helicase 29),3,131 (active),113
Pcmtd1,1,72.4,83.3
Pcmtd1,2,94.2,61
Pcmtd1,3,57.9,66.7
